Assay results from article doi:10.1101/2025.10.24.684417.
These are yes or no findings as the source states them, for the method shown. In cells and extracts the contact can be indirect. Some entries that bind do so weakly or less than the wild type.

Protein sequences, listed by entry. Tags and fused reporters are not part of them.
UniProt Q13761: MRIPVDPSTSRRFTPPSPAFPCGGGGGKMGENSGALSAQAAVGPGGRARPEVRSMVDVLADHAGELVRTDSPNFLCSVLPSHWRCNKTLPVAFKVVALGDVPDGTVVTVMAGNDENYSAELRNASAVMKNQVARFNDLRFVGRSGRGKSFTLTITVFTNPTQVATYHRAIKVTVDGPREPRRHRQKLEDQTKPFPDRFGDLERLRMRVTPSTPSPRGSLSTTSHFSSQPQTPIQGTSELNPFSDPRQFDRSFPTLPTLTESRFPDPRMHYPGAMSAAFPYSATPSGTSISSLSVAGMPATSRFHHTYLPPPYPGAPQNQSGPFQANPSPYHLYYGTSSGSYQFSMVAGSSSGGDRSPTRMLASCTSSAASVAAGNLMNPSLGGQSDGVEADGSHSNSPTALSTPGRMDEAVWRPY
UniProt Q04724: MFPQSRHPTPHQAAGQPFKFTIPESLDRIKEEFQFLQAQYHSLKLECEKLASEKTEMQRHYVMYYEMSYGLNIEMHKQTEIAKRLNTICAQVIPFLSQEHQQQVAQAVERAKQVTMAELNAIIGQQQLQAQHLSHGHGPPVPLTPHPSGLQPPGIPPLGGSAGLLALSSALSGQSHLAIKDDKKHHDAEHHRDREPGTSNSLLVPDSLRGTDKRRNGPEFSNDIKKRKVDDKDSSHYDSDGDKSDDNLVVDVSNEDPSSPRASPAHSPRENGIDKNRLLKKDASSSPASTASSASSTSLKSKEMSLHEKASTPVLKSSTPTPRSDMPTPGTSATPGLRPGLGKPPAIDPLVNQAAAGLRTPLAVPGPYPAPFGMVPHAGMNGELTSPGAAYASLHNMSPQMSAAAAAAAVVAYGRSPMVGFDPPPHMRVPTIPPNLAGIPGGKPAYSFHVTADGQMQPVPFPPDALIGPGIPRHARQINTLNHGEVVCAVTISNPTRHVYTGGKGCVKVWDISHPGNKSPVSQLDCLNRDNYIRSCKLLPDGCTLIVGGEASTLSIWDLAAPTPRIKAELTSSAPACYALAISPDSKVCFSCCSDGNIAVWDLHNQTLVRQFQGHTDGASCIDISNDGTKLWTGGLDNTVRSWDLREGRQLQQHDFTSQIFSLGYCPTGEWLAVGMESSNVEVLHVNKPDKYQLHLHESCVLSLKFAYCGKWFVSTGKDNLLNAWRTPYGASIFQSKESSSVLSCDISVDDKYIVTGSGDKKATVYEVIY
UniProt Q04726: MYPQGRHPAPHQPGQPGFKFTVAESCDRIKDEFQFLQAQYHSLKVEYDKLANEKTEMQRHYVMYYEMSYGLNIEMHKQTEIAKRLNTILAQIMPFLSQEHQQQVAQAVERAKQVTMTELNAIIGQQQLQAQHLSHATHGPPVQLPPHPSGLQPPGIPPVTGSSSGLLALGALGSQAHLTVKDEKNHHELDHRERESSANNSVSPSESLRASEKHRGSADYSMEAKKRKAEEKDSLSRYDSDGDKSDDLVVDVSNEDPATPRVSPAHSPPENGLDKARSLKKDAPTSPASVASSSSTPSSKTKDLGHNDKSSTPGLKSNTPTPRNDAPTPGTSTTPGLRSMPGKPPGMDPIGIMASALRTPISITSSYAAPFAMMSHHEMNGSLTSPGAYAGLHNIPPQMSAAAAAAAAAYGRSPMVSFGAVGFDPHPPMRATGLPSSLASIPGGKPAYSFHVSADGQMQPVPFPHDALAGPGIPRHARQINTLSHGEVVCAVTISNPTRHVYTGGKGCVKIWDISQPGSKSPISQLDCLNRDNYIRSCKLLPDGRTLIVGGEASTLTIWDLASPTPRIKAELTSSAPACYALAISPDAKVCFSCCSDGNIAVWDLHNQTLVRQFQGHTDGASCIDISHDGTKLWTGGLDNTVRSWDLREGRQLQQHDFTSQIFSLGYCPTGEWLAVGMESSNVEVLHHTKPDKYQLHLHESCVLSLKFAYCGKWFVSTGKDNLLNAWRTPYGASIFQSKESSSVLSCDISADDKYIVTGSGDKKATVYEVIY

Target: RUNX3 (as detected in the proximity ligation assays) (UniProt Q13761)
Experiment: proximity ligation

Row | binding | Substance
1 | binds | TLE1 (from UniProt Q04724 1-770)
2 | binds | TLE3 (from UniProt Q04726 1-772)
